Test results from paper PMC5996148.
The list shows a part of the results.

What was measured:
Experiment in all cases: protein microarray (ProtoArray v5.0), streptavidin-Alexa Fluor 647
Conditions in all cases: 3'-biotin; 20 mM Tris (pH 7.5), 5 mM MgCl2, 100 mM KCl, 0.1% Tween-20, A/T-rich and random oligonucleotide blockers; temperature not stated; high values mean tight binding
[1] = system: Adenylate kinase isoenzyme 2, mitochondrial (human)
[2] = system: Adenylate kinase isoenzyme 4, mitochondrial (human)
[3] = system: Aldehyde dehydrogenase family 16 member A1 (human)
[4] = system: Aldehyde dehydrogenase family 3 member B1 (human)
[5] = system: Aldehyde dehydrogenase family 8 member A1 (human)
[6] = system: Alpha-1,3-mannosyl-glycoprotein 4-beta-N-acetylglucosaminyltransferase B (human)
[7] = system: Alpha-catulin (human)
[8] = system: Amino-terminal enhancer of split (human)
[9] = system: Anaphase-promoting complex subunit 11 (human)
[10] = system: Annexin A4 (human)

**Q.** With “GGTGACAGGGGTATGGGGAGGGG [G4-2 biotinylated (Ct1)]” as the sequence, how does the binding signal [1] read?
**A.** The binding signal was -0.371 z-score.

**Q.** And the binding signal [2]?
**A.** The binding signal was -0.39 z-score.

**Q.** What about the binding signal [3] of the same sequence?
**A.** Its binding signal is -0.382 z-score.

**Q.** And the binding signal [4]?
**A.** Its binding signal is -0.376 z-score.

**Q.** What about the binding signal [5] of the same sequence?
**A.** Its binding signal is -0.394 z-score.

**Q.** And the binding signal [6]?
**A.** Its binding signal is -0.377 z-score.

**Q.** And the binding signal [7]?
**A.** The binding signal was -0.392 z-score.

**Q.** What about the binding signal [8] of the same sequence?
**A.** Its binding signal is -0.403 z-score.

**Q.** What about the binding signal [9] of the same sequence?
**A.** The binding signal was -0.376 z-score.

**Q.** What about the binding signal [10] of the same sequence?
**A.** Its binding signal is -0.381 z-score.
